From the supplement of paper PMC12823440, “Inhibitors supercharge kinase turnover through native proteolytic circuits” (Nature, 2025)
Where a name gives a salt, the structure may show the parent alone. Some of the results follow. The calls rarely recur for the same compound in another form.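 In K562 cells expressing nanoluciferase-fused kinases, luminescence was recorded at 4 h intervals between 2 and 18 h, normalized as percent of control with DMSO at 100% and a positive control at 0%. A significant (2 sigma) signal drop marks a time point as decreased. The authors' rule for a hit is not shown and takes in more than the number of time points.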

Amino acid sequences for entries named in this document (tags omitted). A change or cut given only in a name is not applied to a line headed by its entry.
UniProt Q9BUB5: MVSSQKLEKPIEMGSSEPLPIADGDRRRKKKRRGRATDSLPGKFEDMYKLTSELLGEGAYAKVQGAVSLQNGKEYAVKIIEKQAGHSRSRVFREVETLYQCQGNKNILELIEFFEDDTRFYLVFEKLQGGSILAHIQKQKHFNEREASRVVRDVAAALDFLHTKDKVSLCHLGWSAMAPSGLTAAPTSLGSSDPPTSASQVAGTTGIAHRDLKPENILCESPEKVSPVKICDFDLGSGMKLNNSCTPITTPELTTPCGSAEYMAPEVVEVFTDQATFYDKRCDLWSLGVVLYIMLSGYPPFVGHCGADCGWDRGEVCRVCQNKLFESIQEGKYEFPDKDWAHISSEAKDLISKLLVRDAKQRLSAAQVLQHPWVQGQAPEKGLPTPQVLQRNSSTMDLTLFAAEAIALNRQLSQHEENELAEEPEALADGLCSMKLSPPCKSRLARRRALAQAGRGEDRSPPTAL

What follows are compounds tested against MKNK1 (UniProt Q9BUB5) (assay: kinase-Nluc reporter destabilization hit call (1 = scored as downregulated) (binary); higher = compound decreases kinase abundance). Conditions: K562; 2-18 h.

Compound | kinase-Nluc reporter destabilization hit call
C=CC(=O)N1CCC[C@@H](n2c(=O)n(-c3ccc(Oc4ccccc4)cc3)c3c(N)nccc32)C1 [Tolebrutinib] (10 µM) | inactive: 0
C[C@]1(O)C[C@@](N)(c2ccc(-c3nc4n(c3-c3ccccc3)COc3ccncc3-4)cc2)C1 [TAS-117 (hydrochloride)] (10 µM) | inactive: 0
CCOC(=O)C1=C[C@]2(CC)CCCN3CCc4c(n1c1ccccc41)[C@@H]32 [Vinpocetine] (10 µM) | inactive: 0
CC(C)(C)NS(=O)(=O)c1cncc(-c2cc(F)c3nc(N)nn3c2)c1 (10 µM) | inactive: 0
CC(C)(C)c1ccc(C(=O)Nc2cn3cc(-n4ccnc4)ccc3n2)cc1 (10 µM) | inactive: 0
Cc1nc(NC(=O)N2CCC[C@H]2C(N)=O)sc1-c1csc(C(C)(C)C)n1 (10 µM) | inactive: 0
N#Cc1cn([C@@H]2O[C@H](CO)[C@@H](O)[C@H]2O)c2nc[nH]c(=O)c12 [Jaspamycin] (10 µM) | inactive: 0
Cc1ccc(-c2csc(Cn3nc(CC4OCCCO4)c4ccccc4c3=O)n2)cc1 (10 µM) | inactive: 0
CNC(=O)c1c(C)oc2cc(Oc3ncnc4cc(OC)c(OC)cc34)ccc12 [Fruquintinib] (10 µM) | inactive: 0
O=S(=O)(N=Cc1c(O)ccc2ccccc12)c1cccs1 (10 µM) | inactive: 0
NC(=O)c1cccc2c(N[C@H](CN3CCC3)c3ccc(Cl)c(C(F)(F)F)c3)ncnc12 (10 µM) | inactive: 0
CN1CCC(c2ccccc2CC(C)(C)Nc2nc(N3CCOCC3)nc(-n3c(S(C)(=O)=O)nc4ccccc43)n2)CC1 (10 µM) | inactive: 0
O=c1ccc2cc(O)c(O)cc2o1 [Esculetin] (10 µM) | inactive: 0
O=C(Nc1nc2cccc(-c3ccc(CN4CCS(=O)(=O)CC4)cc3)n2n1)C1CC1 [Filgotinib] (2.5 µM) | inactive: 0
CC(C)(O)c1cc2nc(-c3cnc(N)nc3)nc(N3CCOCC3)c2s1 (2.5 µM) | inactive: 0
Cn1cc(-c2ccc3ncc(Cc4ccc5ncccc5c4)n3n2)cn1 (10 µM) | inactive: 0
CC(=O)c1cc(O)ccc1O [2,5-Dihydroxyacetophenone] (10 µM) | inactive: 0

Random excerpt: 2 records from the list
Compound | kinase-Nluc reporter destabilization hit call
Cc1ccc(-c2csc(Cn3nc(CC4OCCCO4)c4ccccc4c3=O)n2)cc1 (10 µM) | inactive: 0
N#Cc1cn([C@@H]2O[C@H](CO)[C@@H](O)[C@H]2O)c2nc[nH]c(=O)c12 [Jaspamycin] (10 µM) | inactive: 0

Further results follow.

Compound | kinase-Nluc reporter destabilization hit call
COc1ccc(COc2cc3oc(=O)c4cc(C(C)O)ccc4c3cc2OC)cc1 (stereo not drawn) [Palomid 529] (2.5 µM) | inactive: 0
O=C(CC(c1ccccc1)C(C(=O)O)C(=O)O)c1ccc(C(F)(F)F)cc1 (stereo not drawn) (10 µM) | inactive: 0
CC(C)[C@H](CO)Nc1nc(Nc2ccc(C(=O)O)c(Cl)c2)c2ncn(C(C)C)c2n1 [Purvalanol B] (10 µM) | inactive: 0
COc1cc2nccc(Oc3ccc(NC(=O)Nc4ccc(F)cc4F)c(F)c3)c2cc1OC (10 µM) | inactive: 0
N#C/C(=C\c1ccc[nH]1)c1ccc(Cl)c(Cl)c1 (2.5 µM) | inactive: 0
O=c1cc(-c2ccc(O)cc2)oc2cc(O)c(O)c(O)c12 [Scutellarein] (10 µM) | inactive: 0
CC(C)n1nc(C#Cc2ccccc2)c2c(N)ncnc21 (10 µM) | inactive: 0
O=C(N=c1sccn1Cc1ccccc1)c1c[nH]c2ncccc12 (10 µM) | inactive: 0
CC(C)=C/C=C1\O[C@@H]2CC(C)=CC(=O)[C@@H]2[C@]1(C)O [Bisabolangelone] (10 µM) | inactive: 0
COc1ccc(C2CC(c3ccc(Cl)cc3)=NN2c2nc(-c3ccncc3)cs2)cc1 (stereo not drawn) [mTOR inhibitor-8] (10 µM) | inactive: 0
Cc1cc(F)c(Nc2ncnc3cc(OCc4ccccc4)ccc23)cc1O (10 µM) | inactive: 0
CNCCOc1ccccc1C(C)(C)Nc1nccn(-c2cc(C(=O)NC3CC3)ccc2C)c1=O [p38α inhibitor 2] (10 µM) | inactive: 0
CCn1c(-c2nonc2N)nc2c(C#CCO)ncc(OCCCN)c21 [AKT Kinase Inhibitor] (10 µM) | inactive: 0
NC(=O)c1nc(-c2c(F)cccc2Cl)oc1Nc1ccc(C(=O)N2CCOCC2)cc1 (10 µM) | inactive: 0
O=C(NCc1cccc(O)c1)c1cc2cc(F)ccc2[nH]1 (10 µM) | inactive: 0
Cc1nc(Nc2ncc(C(=O)Nc3c(C)cccc3Cl)s2)cc(N2CCN(C(=O)CCCCCCC(=O)N[C@H](C(=O)N3C[C@H](O)C[C@H]3C(=O)NCc3ccc(-c4scnc4C)cc3)C(C)(C)C)CC2)n1 (2.5 µM) | inactive: 0
